Assay results taken from publication PMC12040169 (PLOS Biology, 2025).
The list shows a part of the results.

These molecules were tested on T1, CTL2-GFP (C. trachomatis L2/434/Bu, GFP-expressing). Settings: bulk GFP, single well; 28.5 h, 10 µM; inhibitor.
T1 construct: L2/434/Bu, GFP-expressing
Parameters: species or system HeLa; Intracellular C. trachomatis growth in HeLa cells, bulk GFP fluorescence relative to DMSO

| Compound | % of control remaining [%] |
| --- | --- |
| O=C(Cc1ccc([N+](=O)[O-])cc1)N/N=C/c1ccc(O)cc1 [CBK262152] | 115.157 |
| Nc1ncc(-c2ccc3c(c2)OCO3)nc1N1CCC(C(=O)O)CC1 [CBK064074] | 206.595 |
| NS(=O)(=O)c1ccc(NS(=O)(=O)c2ccc(NC(=O)C3CC3)cc2)cc1 [CBK264958] | 83.9243 |
| Nc1ncncc1-c1ccc(Cl)cc1 [CBK012407] | 107.996 |
| CC(/C=C/c1ccc(N(C)C)cc1)=N\NC(=N)SC1CC(=O)N(c2ccc(C(=O)O)cc2)C1=O (stereo not drawn) [CBK262460] | 100 |
| O=C(c1cnccn1)N1C[C@@H]2OCC(=O)N(CC3CC3)[C@@H]2C1 [CBK289681] | 127.471 |
| O=C(CSCc1ccc([N+](=O)[O-])cc1)Nc1ccc2c(c1)OCO2 [CBK264031] | 109.388 |
| Cc1cccnc1C(c1ccccc1)N(C)C(=O)C1CCN(C(=O)NCc2ccccc2)CC1 (stereo not drawn) [CBK074119] | 108.946 |
| CCNC(=O)Nc1nn(Cc2ccc(OC)cc2)c2ccccc12 [CBK105837] | 117.083 |
| O=C(NCc1ccccc1F)c1cccc(CN2C(=O)CSC2=O)c1 [CBK296730] | 138.701 |
| Cc1ccc(C)c2c(C)c(C(=O)NCC[S+](C)[O-])[nH]c12 (stereo not drawn) [CBK282484] | 135.814 |
| Cn1nccc1C(=O)NC1CCN(CC2(c3ccccc3)CC2)CC1 [CBK285373] | 107.303 |
| COc1cc(Nc2cccc3c2C(=O)c2ccccc2C3=O)c(OC)cc1C=O [CBK262677] | 114.105 |
| CNCC1CCCN1S(=O)(=O)c1ccc(OCc2ncnn2C)cc1 (stereo not drawn) [CBK304500] | 129.134 |
| CS(=O)(=O)N(CC(=O)NCc1ccccn1)Cc1ccc(Cl)cc1 [CBK267982] | 124.412 |
| Cc1cc(Cl)ccc1CNC(=O)c1ccc2[nH]ccc2c1 [CBK149048] | 104.647 |
| CCCN(CCC)C(=O)c1ccc(NC(=O)CC)cc1 [CBK304391] | 114.978 |
| CN1[C@@H](CCC(=O)NCc2ccc(F)cc2)CNC(=O)[C@@H]2[C@H]1CCN2C1CCOCC1 [CBK289023] | 148.2 |
| C/C(=N\OCC(=O)N(Cc1ccccc1)c1ccccc1C(=O)O)c1cccs1 [CBK077414] | 93.4807 |
| N#Cc1c(Nc2cccc(F)c2)sc2c(O)cc(=O)[nH]c12 [CBK270250] | 140.179 |
| CN1CCN(Cc2c(O)ccc3c(=O)c(-c4ccc(Cl)cc4)coc23)CC1 [CBK263314] | 105.185 |

Some of the entries above, reformatted:
Compound	% of control remaining [%]
CS(=O)(=O)N(CC(=O)NCc1ccccn1)Cc1ccc(Cl)cc1 [CBK267982]	124.412
Cc1cc(Cl)ccc1CNC(=O)c1ccc2[nH]ccc2c1 [CBK149048]	104.647
